These are yes or no findings as the source states them, for the method shown. Some binding calls cover weakened binding; strength is not graded here.
Molecular target: low density lipoprotein (LDL) (UniProt P04114)
Assay: SPR, immobilized LDL, ALK1 ectodomain with equimolar BMP9

The chains behind the UniProt entries cited, without tags or fusion partners. Where a name states a change or a piece, a line headed by the entry shows the natural chain unless it says otherwise. Residues count along the entry.
UniProt P04114, residues 28-4563: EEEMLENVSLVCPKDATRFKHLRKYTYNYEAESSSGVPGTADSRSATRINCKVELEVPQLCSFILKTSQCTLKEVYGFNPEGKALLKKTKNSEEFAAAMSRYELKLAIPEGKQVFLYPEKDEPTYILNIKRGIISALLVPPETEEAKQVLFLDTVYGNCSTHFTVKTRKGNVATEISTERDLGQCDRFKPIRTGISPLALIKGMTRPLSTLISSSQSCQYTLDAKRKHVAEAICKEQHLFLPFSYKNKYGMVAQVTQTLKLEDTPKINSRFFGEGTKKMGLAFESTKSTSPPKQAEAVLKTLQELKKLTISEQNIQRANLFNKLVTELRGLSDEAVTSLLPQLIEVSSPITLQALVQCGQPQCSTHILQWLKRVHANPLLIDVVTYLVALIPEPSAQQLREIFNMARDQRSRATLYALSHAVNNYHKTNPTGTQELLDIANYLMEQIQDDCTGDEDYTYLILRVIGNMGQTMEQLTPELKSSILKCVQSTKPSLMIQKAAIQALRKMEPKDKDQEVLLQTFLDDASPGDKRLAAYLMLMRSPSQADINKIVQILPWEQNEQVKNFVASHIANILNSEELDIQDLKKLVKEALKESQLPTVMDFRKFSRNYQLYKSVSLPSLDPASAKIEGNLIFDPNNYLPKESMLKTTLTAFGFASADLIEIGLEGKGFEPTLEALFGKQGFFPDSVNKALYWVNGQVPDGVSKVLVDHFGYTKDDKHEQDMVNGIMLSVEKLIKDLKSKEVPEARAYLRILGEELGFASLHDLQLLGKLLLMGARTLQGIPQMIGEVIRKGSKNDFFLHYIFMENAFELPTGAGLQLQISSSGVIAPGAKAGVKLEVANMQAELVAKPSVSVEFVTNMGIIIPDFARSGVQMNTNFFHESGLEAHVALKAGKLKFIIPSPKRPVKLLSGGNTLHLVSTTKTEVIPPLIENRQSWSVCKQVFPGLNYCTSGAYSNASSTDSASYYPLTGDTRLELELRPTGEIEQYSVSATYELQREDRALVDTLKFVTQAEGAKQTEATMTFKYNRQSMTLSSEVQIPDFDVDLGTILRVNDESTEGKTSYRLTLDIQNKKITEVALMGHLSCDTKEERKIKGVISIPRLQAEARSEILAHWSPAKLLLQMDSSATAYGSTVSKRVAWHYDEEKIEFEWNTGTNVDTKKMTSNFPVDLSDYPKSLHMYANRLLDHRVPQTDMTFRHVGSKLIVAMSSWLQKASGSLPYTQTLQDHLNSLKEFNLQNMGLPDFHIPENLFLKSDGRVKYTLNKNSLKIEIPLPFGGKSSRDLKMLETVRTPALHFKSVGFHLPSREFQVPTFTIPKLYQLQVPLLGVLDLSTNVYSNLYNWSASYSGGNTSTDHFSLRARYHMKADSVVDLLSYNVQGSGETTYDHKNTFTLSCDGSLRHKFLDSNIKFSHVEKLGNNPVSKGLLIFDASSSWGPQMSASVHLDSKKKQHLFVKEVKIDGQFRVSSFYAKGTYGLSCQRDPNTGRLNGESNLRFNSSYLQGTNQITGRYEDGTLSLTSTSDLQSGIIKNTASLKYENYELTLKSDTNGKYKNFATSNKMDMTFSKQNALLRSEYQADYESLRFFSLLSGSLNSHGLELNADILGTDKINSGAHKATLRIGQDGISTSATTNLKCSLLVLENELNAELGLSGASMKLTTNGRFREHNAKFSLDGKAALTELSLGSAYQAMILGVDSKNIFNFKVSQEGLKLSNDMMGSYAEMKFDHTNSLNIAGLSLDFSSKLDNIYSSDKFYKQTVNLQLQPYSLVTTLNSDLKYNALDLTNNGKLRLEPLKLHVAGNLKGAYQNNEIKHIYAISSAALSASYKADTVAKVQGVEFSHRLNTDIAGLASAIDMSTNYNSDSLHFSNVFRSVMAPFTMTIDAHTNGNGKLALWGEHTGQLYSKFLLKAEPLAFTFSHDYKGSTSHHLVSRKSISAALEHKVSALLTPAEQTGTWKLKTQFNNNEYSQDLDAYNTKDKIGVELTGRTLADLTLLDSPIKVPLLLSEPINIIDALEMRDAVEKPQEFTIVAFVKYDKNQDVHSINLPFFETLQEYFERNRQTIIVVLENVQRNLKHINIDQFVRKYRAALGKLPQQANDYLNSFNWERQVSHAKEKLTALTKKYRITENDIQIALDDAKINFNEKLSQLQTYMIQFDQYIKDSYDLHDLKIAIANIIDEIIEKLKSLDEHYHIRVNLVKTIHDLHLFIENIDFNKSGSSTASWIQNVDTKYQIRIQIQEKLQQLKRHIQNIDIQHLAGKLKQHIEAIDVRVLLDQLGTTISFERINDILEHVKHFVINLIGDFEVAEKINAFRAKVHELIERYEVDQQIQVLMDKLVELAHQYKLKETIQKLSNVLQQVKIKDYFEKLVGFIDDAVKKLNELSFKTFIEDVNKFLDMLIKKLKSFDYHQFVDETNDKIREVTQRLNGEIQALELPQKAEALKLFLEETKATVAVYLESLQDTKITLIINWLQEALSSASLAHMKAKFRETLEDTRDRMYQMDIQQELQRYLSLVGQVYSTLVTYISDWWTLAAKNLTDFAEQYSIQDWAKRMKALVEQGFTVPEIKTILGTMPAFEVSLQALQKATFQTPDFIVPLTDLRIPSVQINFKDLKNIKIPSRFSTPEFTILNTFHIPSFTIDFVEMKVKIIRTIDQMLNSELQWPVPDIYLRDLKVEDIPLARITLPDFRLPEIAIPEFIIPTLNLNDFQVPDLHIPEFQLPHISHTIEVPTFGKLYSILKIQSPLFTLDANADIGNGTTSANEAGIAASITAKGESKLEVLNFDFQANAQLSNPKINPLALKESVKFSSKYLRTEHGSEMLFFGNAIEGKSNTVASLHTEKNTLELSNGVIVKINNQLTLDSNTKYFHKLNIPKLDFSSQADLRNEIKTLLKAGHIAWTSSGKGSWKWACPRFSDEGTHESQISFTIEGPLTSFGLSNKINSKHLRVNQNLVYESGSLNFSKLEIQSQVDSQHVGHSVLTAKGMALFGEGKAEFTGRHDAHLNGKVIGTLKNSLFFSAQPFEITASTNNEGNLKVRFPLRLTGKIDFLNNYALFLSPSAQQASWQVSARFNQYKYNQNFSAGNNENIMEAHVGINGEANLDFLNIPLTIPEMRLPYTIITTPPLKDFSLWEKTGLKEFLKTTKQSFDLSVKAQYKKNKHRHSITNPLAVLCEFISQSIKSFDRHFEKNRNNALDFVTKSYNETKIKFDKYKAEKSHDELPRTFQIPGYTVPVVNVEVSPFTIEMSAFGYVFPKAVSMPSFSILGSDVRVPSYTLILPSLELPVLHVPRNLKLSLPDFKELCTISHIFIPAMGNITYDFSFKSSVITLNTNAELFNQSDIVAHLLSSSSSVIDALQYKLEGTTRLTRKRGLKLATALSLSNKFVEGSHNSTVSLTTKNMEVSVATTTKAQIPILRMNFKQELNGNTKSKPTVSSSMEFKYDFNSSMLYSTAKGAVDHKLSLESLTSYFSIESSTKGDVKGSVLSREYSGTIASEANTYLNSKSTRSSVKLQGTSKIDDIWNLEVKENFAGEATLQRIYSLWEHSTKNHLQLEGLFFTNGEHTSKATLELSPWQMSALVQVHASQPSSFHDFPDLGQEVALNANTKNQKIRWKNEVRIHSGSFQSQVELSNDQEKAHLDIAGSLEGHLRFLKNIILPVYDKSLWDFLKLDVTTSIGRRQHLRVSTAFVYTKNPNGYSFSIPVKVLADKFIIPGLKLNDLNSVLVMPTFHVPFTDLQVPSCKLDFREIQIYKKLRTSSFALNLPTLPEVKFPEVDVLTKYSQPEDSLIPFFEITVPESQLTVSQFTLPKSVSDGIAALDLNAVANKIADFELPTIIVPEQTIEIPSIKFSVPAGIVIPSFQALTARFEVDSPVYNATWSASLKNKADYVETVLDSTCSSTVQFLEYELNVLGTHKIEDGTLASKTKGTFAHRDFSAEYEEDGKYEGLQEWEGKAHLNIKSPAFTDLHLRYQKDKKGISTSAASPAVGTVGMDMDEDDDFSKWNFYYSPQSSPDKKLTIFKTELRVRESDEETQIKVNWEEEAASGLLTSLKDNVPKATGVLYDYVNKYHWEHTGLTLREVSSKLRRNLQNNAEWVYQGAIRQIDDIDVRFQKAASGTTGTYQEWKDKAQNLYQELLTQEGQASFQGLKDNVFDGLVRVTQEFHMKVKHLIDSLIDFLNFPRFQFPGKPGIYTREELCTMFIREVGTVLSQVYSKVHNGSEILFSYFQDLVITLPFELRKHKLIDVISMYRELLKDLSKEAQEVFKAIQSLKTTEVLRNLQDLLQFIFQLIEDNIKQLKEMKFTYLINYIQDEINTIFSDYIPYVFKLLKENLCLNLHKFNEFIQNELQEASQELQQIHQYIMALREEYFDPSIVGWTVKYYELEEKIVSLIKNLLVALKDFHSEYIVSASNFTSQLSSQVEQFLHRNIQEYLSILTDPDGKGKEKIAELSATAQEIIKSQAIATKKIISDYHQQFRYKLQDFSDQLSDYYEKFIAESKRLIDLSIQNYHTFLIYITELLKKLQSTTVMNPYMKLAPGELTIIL
UniProt Q9UK05: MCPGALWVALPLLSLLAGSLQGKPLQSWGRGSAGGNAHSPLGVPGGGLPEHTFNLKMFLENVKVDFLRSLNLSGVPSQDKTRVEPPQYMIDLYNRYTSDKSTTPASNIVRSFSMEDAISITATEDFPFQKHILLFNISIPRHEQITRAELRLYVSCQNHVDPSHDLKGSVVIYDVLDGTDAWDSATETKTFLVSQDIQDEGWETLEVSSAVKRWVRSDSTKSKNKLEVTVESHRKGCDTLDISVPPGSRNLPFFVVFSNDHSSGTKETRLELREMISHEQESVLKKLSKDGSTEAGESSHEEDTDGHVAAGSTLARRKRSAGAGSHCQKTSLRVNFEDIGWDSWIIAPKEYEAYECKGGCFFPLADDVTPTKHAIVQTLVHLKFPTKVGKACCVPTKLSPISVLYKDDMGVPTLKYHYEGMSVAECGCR

In the case of “ALK1 precomplexed with BMP9 (from UniProt Q9UK05 320-429)”, the binding is reported as “binds”.

Source: patent publication US20210403549A1
